In paper PMC6336269:
Results are given in words; binding and its absence hold for the method and conditions named. Binding seen in cells or lysates may run through a third protein. A yes stands for co-enrichment or nearness to the bait. Other partners may have been found. For part of these data: Where a sequence is shown, tags or fusion partners need not be part of it.

Chains of the proteins cited; added tags and fusions are not shown. Lines headed by an entry give the natural chain unless they say otherwise; changes in a name come on top.
UniProt P40160: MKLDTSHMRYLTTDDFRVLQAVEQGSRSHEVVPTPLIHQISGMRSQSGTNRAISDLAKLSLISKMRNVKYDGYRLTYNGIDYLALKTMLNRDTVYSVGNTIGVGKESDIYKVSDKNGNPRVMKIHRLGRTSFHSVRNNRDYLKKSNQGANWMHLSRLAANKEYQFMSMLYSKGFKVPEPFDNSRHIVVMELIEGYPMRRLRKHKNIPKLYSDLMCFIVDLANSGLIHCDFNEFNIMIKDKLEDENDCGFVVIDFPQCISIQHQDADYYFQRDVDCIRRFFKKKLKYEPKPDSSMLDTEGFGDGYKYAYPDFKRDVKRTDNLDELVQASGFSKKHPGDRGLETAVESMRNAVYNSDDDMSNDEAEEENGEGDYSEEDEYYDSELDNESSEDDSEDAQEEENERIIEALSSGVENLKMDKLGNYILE
UniProt P41819: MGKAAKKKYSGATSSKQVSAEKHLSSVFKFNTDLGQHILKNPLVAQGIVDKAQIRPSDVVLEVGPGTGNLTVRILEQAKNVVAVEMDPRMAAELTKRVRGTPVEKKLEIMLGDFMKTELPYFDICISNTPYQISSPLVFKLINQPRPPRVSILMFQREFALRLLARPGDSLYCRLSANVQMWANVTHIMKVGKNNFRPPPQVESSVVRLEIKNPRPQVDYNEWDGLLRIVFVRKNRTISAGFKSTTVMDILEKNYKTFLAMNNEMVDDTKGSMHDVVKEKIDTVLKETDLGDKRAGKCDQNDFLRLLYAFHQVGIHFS
UniProt P32905: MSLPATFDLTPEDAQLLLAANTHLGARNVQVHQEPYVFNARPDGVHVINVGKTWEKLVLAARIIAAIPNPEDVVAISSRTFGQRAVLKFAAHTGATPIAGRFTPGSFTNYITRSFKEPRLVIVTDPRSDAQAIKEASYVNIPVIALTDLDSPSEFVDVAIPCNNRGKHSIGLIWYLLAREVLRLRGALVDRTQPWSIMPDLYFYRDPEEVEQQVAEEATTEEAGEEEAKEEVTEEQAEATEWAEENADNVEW
UniProt Q08745: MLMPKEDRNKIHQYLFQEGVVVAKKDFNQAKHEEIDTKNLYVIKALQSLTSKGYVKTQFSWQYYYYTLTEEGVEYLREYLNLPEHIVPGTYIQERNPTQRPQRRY
UniProt P02407: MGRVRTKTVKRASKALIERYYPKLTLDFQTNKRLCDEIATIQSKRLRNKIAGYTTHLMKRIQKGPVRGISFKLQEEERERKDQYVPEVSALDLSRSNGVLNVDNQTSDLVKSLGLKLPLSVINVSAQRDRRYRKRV
UniProt P0C0V8: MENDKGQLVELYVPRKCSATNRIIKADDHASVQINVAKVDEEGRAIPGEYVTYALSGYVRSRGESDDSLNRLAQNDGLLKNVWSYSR

T1: TAP tagged Slx9 (S. cerevisiae) (UniProt P53251)
T1 sequence: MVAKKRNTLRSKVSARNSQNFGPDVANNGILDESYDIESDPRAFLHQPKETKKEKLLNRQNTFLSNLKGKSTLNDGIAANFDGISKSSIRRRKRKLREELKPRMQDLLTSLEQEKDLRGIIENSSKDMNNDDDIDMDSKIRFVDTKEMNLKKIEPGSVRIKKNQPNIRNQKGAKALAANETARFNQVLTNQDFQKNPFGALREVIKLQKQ

B1: Enp1 (protein, UniProt P38333 1-483)
chain: MARASSTKARKQRHDPLLKDLDAAQGTLKKINKKKLAQNDAANHDAANEEDGYIDSKASRKILQLAKEQQDEIEGEELAESERNKQFEARFTTMSYDDEDEDEDEDEEAFGEDISDFEPEGDYKEEEEIVEIDEEDAAMFEQYFKKSDDFNSLSGSYNLADKIMASIREKESQVEDMQDDEPLANEQNTSRGNISSGLKSGEGVALPEKVIKAYTTVGSILKTWTHGKLPKLFKVIPSLRNWQDVIYVTNPEEWSPHVVYEATKLFVSNLTAKESQKFINLILLERFRDNIETSEDHSLNYHIYRAVKKSLYKPSAFFKGFLFPLVETGCNVREATIAGSVLAKVSVPALHSSAALSYLLRLPFSPPTTVFIKILLDKKYALPYQTVDDCVYYFMRFRILDDGSNGEDATRVLPVIWHKAFLTFAQRYKNDITQDQRDFLLETVRQRGHKDIGPEIRRELLAGASREFVDPQEANDDLMIDVN
B2: Tsr1 (protein, UniProt Q07381 1-788)
chain: MAGHSHRSSLKNGHKSYKSKHASKGALKRLYKGKVEKEPVGTGKPDKQVSKLQRKNKAKQLRAQRILDSIENRKLFEGKNGAAKIITIVPLVNDLDPLDILYKLLKCADDEGIMVQEVDSKRIFNVHIKKFKSNLKIIIPDMTNFLNILDCAKVADFVVFGLSGVQEVDEEFGEQIIRALELQGIASYIGVISNLSAVHEKEKFQLDVKQSLESYFKHFFPSEERVYNLEKNSDALNVLRTLCQRLPRSINWRDNRGYVVADFVDFVETSPDSGDLVIEGTVRGIGFNANRLVHIPDFGDFQLNKIEKISESSQKRKIIKEKATDSLSLELDLQTVFESNMNRDTLDEYAPEGTEDWSDYDEDFEYDGLTTARYDDHGFLPGREQTSKKAAVPKGTSDYQAKWYLDDVIDANEEEEAEQTNGKDETMMEIDDEMMVEQDNEEVAGDEEYDIEDNEGFEELSPEEEERQLREFRDMEKEDREFPDEIELEPSESAIERLKRYRGLKNLYNCDWQVDEKDPSSPAEWKRLLRIGNYKNTKNRIIKETKNEAQAIAGDRIRMFIRFPKFLLEKIQDPKQLLFAVYGLLLHEHKNAVVNFSLQRWEQYDKPVPSQEPIVVQYGVRRYTIQPLFSQGSNSPNNVHKYERFLHPDTVSVATCIAPVDFTQSPAIFFKPSPTDAKNIELIGHGTFLNADHSRILAKRAILTGHPFRFHKTVVTVRYMFFRPEDVEWFKSIPLFTKSGRSGFIKESLGTHGYFKATFDGKLSAQDVVAMSLYKRMWPMPSLPWNGM
B3: Rrp12 (protein, UniProt Q12754 1-1228)
chain: MDQDKVAFLLELEDKLAKIRSQVNSKLENQKHIAIILTAVEENIAGQATNDVSKNIVNYIISFMSLLDQAVDPSTHEIKDIQLASSSTYLLDLIFHYSPKVLLRSKFSEILTKIAPCITAEKANAPLIRAAIGCLESLLIAQDAQAWNNTYDLNVTPKRGLQGILELSLDVRPKVRKRALDAVHAVLLNPPVAPTAEHVAAVFVADFCDKQLAGILNDLSNLSNKQLKAQKTKEDINASVMRSLRLITSVVSTGQWPSSQIEPLCDVLLGVTKSSEQYLVSASFECFESMFKTMAETTISSGLAENKYLRVLDTIFALKPSNVDTLLTKSWIAVVIKGMSTYATHQPLKALRKIPGVFHIMCTYLASETPEVYQAASQCLISILSESVKDDLLLYTPSVDEKVFKNVDEIISQIAKTFIDFLSIRYSHCSREILKILVAAFNKFRYRSNPHFLKSLKIVDTWRVNEEQFMDLRNEIELVIGASISAMGPEMILAEAPLNLDNPSSERPGRAWLLPLIRDYTKNANLATFQNELAPYIKSFQSKFDKVPEESIQLRVFQTIVDQIWSTLPRFCELPMDLRESFTDEFASELSSLLYSEVELRTTICHALKVLAESNVSYAEESSSHNVLLLQRFPISEAQKNIEYLSTKSTNLLAVLFNVYTQTTPNARSYILETIDQYLKITSKEDLEKTFNNVCGLLKNSMNEESSGNVNKEKKKPQLTATLLDLIICMITYLPVSSYSALFSMFSLTVNSADALIQKRAYRIITKLSELKSGSTAVAQFISDIENVMVDSASSVQTSAKAARLTAIKTIVELLPLDHLDFIVRTVAEVILSTKDVNEKSRETAFDTLICMGRKMNEPNGIIKLFQIPGYDPTTPDQSSSISEFFKIISAGLIGESQHMVSSSITGYACLVFEFKNELDSGILMDIYDTIELYLTSNSREIVKSAIGFTKVCVLGLPEELMRPKVPELLLKLLRWSHEHTGHFKAKVKHIIERLIRRFGYDYIEANFPEEDRRLLTNIRKMRNRNKRKDEEVTTGVSDVAATKGSRFMSAFDEAVYGSDEENDNGSDQEENVAGGKMKNGAKQFIVESGDNPLDLLDSQTLAHISSTRPKKFNKNQNRARFNDDAFNFDSEGKLVVKGQPKPSTNVDDPLSAVTSGINAYLEAVKSGPVRGQRNKLKFRKNGKDSDEFGDDDDGEKDSRLMRGRVNQGNKIGKHNKKGPKFKSRKKL
B4: Slx9 (protein, UniProt P53251 1-210)
chain: T1 sequence
B5: rpS3 (uS3) (protein, UniProt P05750 1-240)
chain: MVALISKKRKLVADGVFYAELNEFFTRELAEEGYSGVEVRVTPTKTEVIIRATRTQDVLGENGRRINELTLLVQKRFKYAPGTIVLYAERVQDRGLSAVAQAESMKFKLLNGLAIRRAAYGVVRYVMESGAKGCEVVVSGKLRAARAKAMKFADGFLIHSGQPVNDFIDTATRHVLMRQGVLGIKVKIMRDPAKSRTGPKALPDAVTIIEPKEEEPILAPSVKDYRPAEETEAQAEPVEA
B6: rpS20 (uS10) (protein, UniProt P38701 1-121)
chain: MSDFQKEKVEEQEQQQQQIIKIRITLTSTKVKQLENVSSNIVKNAEQHNLVKKGPVRLPTKVLKISTRKTPNGEGSKTWETYEMRIHKRYIDLEAPVQIVKRITQITIEPGVDVEVVVASN
B7: Asc1 (protein, UniProt P38011 1-319)
chain: MASNEVLVLRGTLEGHNGWVTSLATSAGQPNLLLSASRDKTLISWKLTGDDQKFGVPVRSFKGHSHIVQDCTLTADGAYALSASWDKTLRLWDVATGETYQRFVGHKSDVMSVDIDKKASMIISGSRDKTIKVWTIKGQCLATLLGHNDWVSQVRVVPNEKADDDSVTIISAGNDKMVKAWNLNQFQIEADFIGHNSNINTLTASPDGTLIASAGKDGEIMLWNLAAKKAMYTLSAQDEVFSLAFSPNRYWLAAATATGIKVFSLDPQYLVDDLRPEFAGYSKAAEPHAVSLAWSADGQTLFAGYTDNVIRVWQVMTAN
B8: rpS2 (uS5) (protein, UniProt P25443 1-254)
chain: MSAPEAQQQKRGGFGGRNRGRPNRRGPRNTEEKGWVPVTKLGRLVKAGKITTIEEIFLHSLPVKEFQIIDTLLPGLQDEVMNIKPVQKQTRAGQRTRFKAVVVVGDSNGHVGLGIKTAKEVAGAIRAGIIIAKLSVIPIRRGYWGTNLGQPHSLATKTTGKCGSVTVRLIPAPRGSGIVASPAVKKLLQLAGVEDVYTQSNGKTRTLENTLKAAFVAIGNTYGFLTPNLWAEQPLPVSPLDIYSDEASAQKKRF
B9: Nob1 (protein, UniProt Q08444 1-459)
chain: MTENQTAHVRALILDATPLITQSYTHYQNYAQSFYTTPTVFQEIKDAQARKNLEIWQSLGTLKLVHPSENSIAKVSTFAKLTGDYSVLSANDLHILALTYELEIKLNNGDWRLRKKPGDALDASKADVGTDGKQKLTEDNKKEEDSESVPKKKNKRRGGKKQKAKREAREAREAENANLELESKAEEHVEEAGSKEQICNDENIKESSDLNEVFEDADDDGDWITPENLTEAIIKDSGEDTTGSLGVEASEEDRHVALNRPENQVALATGDFAVQNVALQMNLNLMNFMSGLKIKRIRNYMLRCHACFKIFPLPKDGKPKHFCASCGGQGTLLRCAVSVDSRTGNVTPHLKSNFQWNNRGNRYSVASPLSKNSQKRYGKKGHVHSKPQENVILREDQKEYEKVIKQEEWTRRHNEKILNNWIGGGSADNYISPFAITGLKQHNVRIGKGRYVNSSKRRS
B10: casein kinase type protein kinase Hrr25 (enzyme, UniProt P29295 1-494)
chain: MDLRVGRKFRIGRKIGSGSFGDIYHGTNLISGEEVAIKLESIRSRHPQLDYESRVYRYLSGGVGIPFIRWFGREGEYNAMVIDLLGPSLEDLFNYCHRRFSFKTVIMLALQMFCRIQYIHGRSFIHRDIKPDNFLMGVGRRGSTVHVIDFGLSKKYRDFNTHRHIPYRENKSLTGTARYASVNTHLGIEQSRRDDLESLGYVLIYFCKGSLPWQGLKATTKKQKYDRIMEKKLNVSVETLCSGLPLEFQEYMAYCKNLKFDEKPDYLFLARLFKDLSIKLEYHNDHLFDWTMLRYTKAMVEKQRDLLIEKGDLNANSNAASASNSTDNKSETFNKIKLLAMKKFPTHFHYYKNEDKHNPSPEEIKQQTILNNNAASSLPEELLNALDKGMENLRQQQPQQQVQSSQPQPQPQQLQQQPNGQRPNYYPEPLLQQQQRDSQEQQQQVPMATTRATQYPPQINSNNFNTNQASVPPQMRSNPQQPPQDKPAGQSIWL

Biological target: T1, TAP tagged Slx9 (S. cerevisiae)
Assay: affinity purification with mass spectrometry; TAP tagged Slx9 with associated SSU precursors purified from yeast cellular extracts on rabbit immunoglobulin G coupled to magnetic beads; semi-quantitative mass spectrometry with iTRAQ 4plex; wild type cells and cells shifted to glucose for four hours to deplete rpS2, rpS3 or rpS21

binding, binds:
Rio2 (from UniProt P40160 1-425)
B1
B2
B3

Biological target: TAP tagged Rio2 (S. cerevisiae) (UniProt P40160)
Assay: affinity purification with mass spectrometry; TAP tagged Rio2 with associated SSU precursors purified from yeast cellular extracts on rabbit immunoglobulin G coupled to magnetic beads; semi-quantitative mass spectrometry with iTRAQ 4plex; wild type cells and cells shifted to glucose for two or four hours to deplete rpS0, rpS2, rpS21, rpS3, rpS20 or rpS29

binding, binds:
Dim1 (from UniProt P41819 1-318)
rpS0 (uS2) (from UniProt P32905)
rpS10 (eS10) (from UniProt Q08745)
rpS17 (from UniProt P02407)
rpS21 (eS21) (from UniProt P0C0V8)

Biological target: TAP tagged Rio2 (S. cerevisiae) (UniProt P40160)
Assay: as above
Remark: another data set of the same source

binding, binds:
B4
B5
B6
B7
B8
B9
B1
B2
B10
